Assay results published in patent US20100239588A1 (SHANGHAI NATIONAL ENGINEERING RESEARCH CENTER OF ANTIBODY …, published 2010).
No constants are given. Whether binding was seen depends on the method and setting. Some results given as binding are weak or reduced against the parent protein; the word gives no strength.

By UniProt entry, the sequences of proteins in these tests, tags left out. Residues count along the entry.
UniProt P10923, residues 17-294: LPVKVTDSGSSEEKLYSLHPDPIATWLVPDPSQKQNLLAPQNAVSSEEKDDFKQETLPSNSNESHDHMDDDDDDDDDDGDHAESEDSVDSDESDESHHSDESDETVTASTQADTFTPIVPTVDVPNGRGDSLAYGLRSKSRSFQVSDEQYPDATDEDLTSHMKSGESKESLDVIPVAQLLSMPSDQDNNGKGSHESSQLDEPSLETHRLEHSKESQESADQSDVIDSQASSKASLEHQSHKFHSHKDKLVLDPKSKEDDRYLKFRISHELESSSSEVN

Target: mouse OPN protein (mouse) (UniProt P10923)
Assay: western blot

binding: binds
B1: mouse anti-human OPN monoclonal antibody 23C3 (antibody, V domains shown)
VH: EVQLVESGGGLVQPKGSLKISCAASGFTFNIYAMNWVRQAPGKGLEWVARIRSQSNNYTTYYADSVKDRFTISRDDSQSMLYLQMNNLKTEDTAMYYCVRQMGDYWGQGTTLTVSS
VL: YIQMTQSPASLSVSVGETVTITCRASENIYSFLAWYQQKQGKSPQLLVYAATNLADGVPSRFSGSGSGTQFSLKINSLQSEDFGTYYCQHFWGTPFTFGSGTKLEIKR
notes: also called 23C3 mAb; 23C3 monoclonal antibody
